The target of experiment [1] is T1, Myc-[His]6-tagged ADAM9 ectodomain (ECTO-His), soluble mouse ADAM9 ectodomain (mouse) (UniProt Q61072).
T1 sequence: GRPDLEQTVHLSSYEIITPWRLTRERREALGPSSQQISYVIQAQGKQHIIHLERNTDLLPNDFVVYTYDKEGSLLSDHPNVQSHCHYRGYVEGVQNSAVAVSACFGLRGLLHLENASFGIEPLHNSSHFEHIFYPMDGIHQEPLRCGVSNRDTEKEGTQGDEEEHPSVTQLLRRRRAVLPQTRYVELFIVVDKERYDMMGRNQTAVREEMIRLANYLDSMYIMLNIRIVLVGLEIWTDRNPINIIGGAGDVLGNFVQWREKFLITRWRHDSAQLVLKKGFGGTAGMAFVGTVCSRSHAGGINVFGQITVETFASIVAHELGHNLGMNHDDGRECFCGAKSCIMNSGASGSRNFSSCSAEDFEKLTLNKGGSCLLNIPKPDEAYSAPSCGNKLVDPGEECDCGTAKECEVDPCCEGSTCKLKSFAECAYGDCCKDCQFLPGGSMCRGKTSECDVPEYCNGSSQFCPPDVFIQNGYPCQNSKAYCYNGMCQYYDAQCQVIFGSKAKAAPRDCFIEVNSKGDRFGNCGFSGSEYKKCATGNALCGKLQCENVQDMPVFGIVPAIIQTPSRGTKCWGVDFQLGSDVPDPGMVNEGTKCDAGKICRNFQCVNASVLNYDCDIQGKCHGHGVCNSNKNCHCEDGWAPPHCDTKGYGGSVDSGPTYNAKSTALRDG
The experiment is described as follows: ELISA; one tagged ADAM9 ectodomain (ECTO-His or ECTO-Fc) coated at 2 ug/ml in 0.1 M Na2CO3 pH 9.8 overnight at 4 C on maxisorb plates; ADAM9 ectodomain with the other tag in solution for 1 h at RT in PBS, 1% Tween-20, 1% BSA, 1% milk powder; detected by tag-directed antibody and HRP secondary; both purified. Background: ELISA stands for enzyme-linked immunosorbent assay.

Experiment [2] concerns the target T2, ADAM9-Fc ectodomain (ECTO-Fc), soluble mouse ADAM9 ectodomain with C-terminal IgG Fc (mouse) (UniProt Q61072).
T2 sequence: T1 sequence
Described as above.

Results are given in words; binding and its absence hold for the method and conditions named. Some entries that bind do so weakly or less than the wild type. Tags and fused reporters may be left off the sequences shown.

B1: ADAM9-Fc ectodomain (ECTO-Fc), soluble mouse ADAM9 ectodomain with C-terminal IgG Fc (Fc fusion, UniProt Q61072 30-698)
chain: T1 sequence
As to B1, in experiment [1], the binding entry is given as “binds”.

B2: Myc-[His]6-tagged ADAM9 ectodomain (ECTO-His), soluble mouse ADAM9 ectodomain (domain or fragment, UniProt Q61072 30-698)
chain: T1 sequence
For B2, the binding entry in experiment [2] is “binds”.

The values are drawn from PMC5643258.
